These are yes or no findings as the source states them, for the method shown. Binding seen in cells or lysates may run through a third protein. Some binding calls cover weakened binding; strength is not graded here.
Legend:
[1] = target: Dopamine D1 receptor (D1R), endogenous, from mouse hippocampus tissue (mouse) (UniProt Q61616); experiment: co-immunoprecipitation from mouse hippocampus tissue with anti-5-HT2AR antibody, Western blot for D1R
[2] = target: Dopamine D1 receptor (D1R), endogenous, from mouse hippocampus tissue (mouse) (UniProt Q61616); experiment: co-immunoprecipitation from hippocampus of CRS, CMS and CSDS mouse models, Western blot
[3] = target: Dopamine D1 receptor (D1R), endogenous, from mouse hippocampus tissue (mouse) (UniProt Q61616); experiment: GST pulldown from mouse hippocampus extract, Western blot

Chains of the proteins cited; added tags and fusions are not shown. Lines headed by an entry give the natural chain unless they say otherwise; changes in a name come on top. Residues count along the entry.
UniProt Q61616: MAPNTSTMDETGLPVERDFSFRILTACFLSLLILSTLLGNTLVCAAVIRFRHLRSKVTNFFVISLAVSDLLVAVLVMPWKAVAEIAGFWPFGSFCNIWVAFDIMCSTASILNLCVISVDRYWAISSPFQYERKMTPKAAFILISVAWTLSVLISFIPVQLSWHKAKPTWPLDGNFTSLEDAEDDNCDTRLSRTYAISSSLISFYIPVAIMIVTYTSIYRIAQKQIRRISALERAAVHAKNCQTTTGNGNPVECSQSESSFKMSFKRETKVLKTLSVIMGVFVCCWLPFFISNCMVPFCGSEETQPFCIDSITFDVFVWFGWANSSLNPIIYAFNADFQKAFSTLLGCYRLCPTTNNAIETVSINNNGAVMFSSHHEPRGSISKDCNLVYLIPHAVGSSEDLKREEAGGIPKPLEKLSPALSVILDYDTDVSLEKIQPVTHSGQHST
UniProt P35363: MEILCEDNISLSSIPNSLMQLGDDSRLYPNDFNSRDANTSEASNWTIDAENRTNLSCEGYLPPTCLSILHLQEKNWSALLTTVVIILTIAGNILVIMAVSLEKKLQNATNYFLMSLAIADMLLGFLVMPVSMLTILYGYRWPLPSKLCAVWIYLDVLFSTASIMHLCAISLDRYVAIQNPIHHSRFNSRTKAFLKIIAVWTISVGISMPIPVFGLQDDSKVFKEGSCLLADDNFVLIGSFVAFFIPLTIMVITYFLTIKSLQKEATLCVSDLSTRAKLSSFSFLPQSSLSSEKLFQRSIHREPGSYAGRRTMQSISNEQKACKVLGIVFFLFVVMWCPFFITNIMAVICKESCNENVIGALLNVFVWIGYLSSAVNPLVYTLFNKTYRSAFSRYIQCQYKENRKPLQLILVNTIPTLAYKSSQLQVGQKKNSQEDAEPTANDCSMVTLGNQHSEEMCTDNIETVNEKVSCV
GST fusion protein containing the CT region of 5-HT2AR (GST-5HT2AR-CT) (P28223, residues 385-471): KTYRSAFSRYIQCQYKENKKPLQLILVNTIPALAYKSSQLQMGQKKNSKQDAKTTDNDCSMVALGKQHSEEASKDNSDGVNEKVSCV
GST fusion protein containing a DV region of 5-HT2AR (GST-5HT2AR-DV) (P28223, residues 442-471): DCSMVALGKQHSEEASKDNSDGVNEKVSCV

Substance	binding [1]	binding [2]	binding [3]
5-HT2A receptor (5-HT2AR), endogenous, from mouse hippocampus tissue (from UniProt P35363 1-471)	binds	binds	
GST fusion protein containing a DV region of 5-HT2AR (GST-5HT2AR-DV) (from UniProt P28223 442-471)			binds
GST fusion protein containing the CT region of 5-HT2AR (GST-5HT2AR-CT) (from UniProt P28223 385-471)			binds
